No constants are given. Whether binding was seen depends on the method and setting. In cells and extracts the contact can be indirect. Some results given as binding are weak or reduced against the parent protein; the word gives no strength.
Molecular target: SF3B1 (human (endogenous in A549 and BZR-T33)) (UniProt O75533)
Assay: co-IP; anti-SF3B1 immunoprecipitation (anti-IgG as negative control) of extracts from control or RNF113A-depleted A549 or BZR-T33 cells, treated or not with Cisplatin, followed by anti-SF3B2 Western blot

Amino acid sequences for entries named in this document (tags omitted).
UniProt O75533: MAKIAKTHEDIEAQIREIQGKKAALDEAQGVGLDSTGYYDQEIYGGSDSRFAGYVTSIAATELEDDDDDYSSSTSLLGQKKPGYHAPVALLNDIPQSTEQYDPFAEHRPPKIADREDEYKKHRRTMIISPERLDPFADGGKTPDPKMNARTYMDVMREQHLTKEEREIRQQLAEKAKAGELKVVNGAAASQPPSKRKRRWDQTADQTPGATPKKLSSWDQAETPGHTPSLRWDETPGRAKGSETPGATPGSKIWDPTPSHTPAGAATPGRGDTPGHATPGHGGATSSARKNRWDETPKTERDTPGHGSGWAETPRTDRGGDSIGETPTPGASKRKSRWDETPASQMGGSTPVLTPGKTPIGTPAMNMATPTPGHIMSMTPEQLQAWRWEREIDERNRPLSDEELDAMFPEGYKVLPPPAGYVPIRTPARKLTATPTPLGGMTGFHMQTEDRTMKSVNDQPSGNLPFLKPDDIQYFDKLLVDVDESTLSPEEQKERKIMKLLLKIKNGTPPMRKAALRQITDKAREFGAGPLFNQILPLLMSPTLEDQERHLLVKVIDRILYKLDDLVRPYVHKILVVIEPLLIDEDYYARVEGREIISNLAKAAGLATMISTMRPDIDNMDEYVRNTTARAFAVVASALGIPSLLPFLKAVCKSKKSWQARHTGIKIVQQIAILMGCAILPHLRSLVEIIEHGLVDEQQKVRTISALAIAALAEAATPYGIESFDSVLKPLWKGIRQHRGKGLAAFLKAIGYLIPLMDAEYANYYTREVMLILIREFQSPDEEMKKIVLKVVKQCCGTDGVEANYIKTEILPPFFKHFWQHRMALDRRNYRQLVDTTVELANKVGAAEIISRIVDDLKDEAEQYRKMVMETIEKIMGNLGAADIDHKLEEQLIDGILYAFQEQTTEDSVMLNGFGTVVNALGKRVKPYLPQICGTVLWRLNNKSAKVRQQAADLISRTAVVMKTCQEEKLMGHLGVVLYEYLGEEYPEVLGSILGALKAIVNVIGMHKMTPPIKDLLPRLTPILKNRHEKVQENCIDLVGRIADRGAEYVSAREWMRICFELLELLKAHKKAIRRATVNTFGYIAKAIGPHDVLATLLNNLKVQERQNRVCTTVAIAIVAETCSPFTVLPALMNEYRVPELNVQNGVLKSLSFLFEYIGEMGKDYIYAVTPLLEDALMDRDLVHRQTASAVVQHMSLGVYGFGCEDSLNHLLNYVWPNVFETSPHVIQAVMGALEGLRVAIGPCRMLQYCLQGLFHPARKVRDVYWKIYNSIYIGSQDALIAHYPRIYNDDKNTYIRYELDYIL
UniProt Q13435: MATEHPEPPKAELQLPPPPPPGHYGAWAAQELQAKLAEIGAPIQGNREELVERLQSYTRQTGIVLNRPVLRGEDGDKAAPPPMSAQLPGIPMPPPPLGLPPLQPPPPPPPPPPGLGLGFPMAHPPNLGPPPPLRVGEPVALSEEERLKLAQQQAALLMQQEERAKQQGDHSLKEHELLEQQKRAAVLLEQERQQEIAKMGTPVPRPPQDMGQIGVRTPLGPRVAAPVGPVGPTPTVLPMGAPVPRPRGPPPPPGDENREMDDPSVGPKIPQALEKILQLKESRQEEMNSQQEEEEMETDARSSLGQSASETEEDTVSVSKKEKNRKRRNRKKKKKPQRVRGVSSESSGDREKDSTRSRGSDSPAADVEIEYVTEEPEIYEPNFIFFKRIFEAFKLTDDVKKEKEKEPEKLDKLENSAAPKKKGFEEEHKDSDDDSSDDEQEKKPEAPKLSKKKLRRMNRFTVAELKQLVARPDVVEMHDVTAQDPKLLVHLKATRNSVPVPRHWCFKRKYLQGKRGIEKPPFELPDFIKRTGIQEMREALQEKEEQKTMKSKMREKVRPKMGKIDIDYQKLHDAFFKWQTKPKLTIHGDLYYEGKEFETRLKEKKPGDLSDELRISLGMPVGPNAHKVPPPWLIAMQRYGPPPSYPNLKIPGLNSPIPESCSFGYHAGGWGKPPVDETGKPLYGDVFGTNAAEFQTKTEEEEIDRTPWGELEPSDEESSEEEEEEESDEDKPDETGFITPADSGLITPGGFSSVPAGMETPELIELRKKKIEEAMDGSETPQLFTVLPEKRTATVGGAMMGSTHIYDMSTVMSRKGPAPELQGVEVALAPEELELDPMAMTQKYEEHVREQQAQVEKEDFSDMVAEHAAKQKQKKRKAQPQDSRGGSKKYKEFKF

In the case of SF3B2 (from UniProt Q13435 1-895), the binding was “binds”.

— publication PMC7062854
